Data as given in PubChem BioAssay AID2685 (National Center for Advancing Translational Sciences (NCATS), 2010).
The list shows a part of the results. These are further read-outs of the screen, such as a control signal, another cell line or another target. No call is given for them. The list favours compounds with an active or inconclusive main result. Words in brackets tell the shape of the fitted curve; partial curves, single points and poor fits give uncertain potencies.

Experiment: qHTS Assay for Lipid Storage Modulators in Drosophila S3 Cells;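 on cell number change: cells counted by Cell Tracker Red CMTPX staining in the red channel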
Conditions: BODIPY lipid droplet fluorescence, 18-24 h; for cell number change: measured here: cell count max response, cells fed with added oleic acid
Method in brief: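 Laser-scanning cytometry quantifies lipid droplet accumulation (500–530 nm total intensity; droplet/cell object ratio) in oleic acid-fed (400 uM added) Drosophila S3 cells treated with a concentration series. 20 uM Triacsin C defined 100% inhibition.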

[1] = measured here: cell number channel AC50, cells fed with added oleic acid
[2] = measured here: lipid fluorescence (Fed channel) AC50, cells fed with added oleic acid

Row | SMILES | cell number change [%] | AC50 [1] | AC50 [2]
1 | CS(=O)(=O)c1ccc2nc(NC(=O)CN3CCN(Cc4ccccc4)CC3)sc2c1 | 36.7 | 29.1 µM [rising, single point] | –
2 | Cc1ccc(C)c(NC(=O)Cn2nc(C(F)(F)F)cc2C2CC2)c1 | 18.1 | 0.00517 µM [rising, full curve, poor fit] | 0.366 µM [rising, full curve]
3 | CC1(C)Cc2c(sc3nn[nH]c(=O)c23)CO1 | -14 | – | –
4 | O=C(NCC1CCCO1)C(c1ccccn1)N(Cc1ccccc1Cl)C(=O)CN1C(=O)c2ccccc2S1(=O)=O (stereo not given) | 1.2 | – | –
5 | CC(C)(C)C1CCc2onc(C(=O)Nc3ccc(F)cc3F)c2C1 (stereo not given) | -22.4 | – | –
6 | CCOC(=O)c1cc(S(=O)(=O)N2CCCC2)cn1C | 17.2 | 6.51 µM [rising, single point] | 16.4 µM [rising, single point]
7 | CSCCC(NC(=O)c1ccco1)C(=O)N1CCCCCCC1 (stereo not given) | – | – | 0.146 µM [rising, full curve, poor fit]
8 | Cc1cccc(C(C)C)c1NC(=O)COC(=O)CCN1C(=O)C2CC=CCC2C1=O (stereo not given) | -0.697 | – | 0.0058 µM [falling, full curve, poor fit]
9 | O=C(NC(=S)Nc1ccc(S(=O)(=O)Nc2nccs2)cc1)c1cccnc1 | – | – | 7.31 µM [falling, partial curve]
10 | Oc1ccc(Br)cc1-c1cc(-c2ccccc2)n[nH]1 | -51 | 29.1 µM [falling, single point] | 29.1 µM [falling, single point]
11 | CCC1CCCCN1CCCNC(=O)c1cn(C)c2ccc(S(=O)(=O)N(C)C3CCCCC3)cc2c1=O (stereo not given) | -9.48 | – | 0.164 µM [falling, full curve, poor fit]
12 | COC(=O)c1ccc(CS(=O)(=O)c2ccc(C)cc2)cc1 | -65 | 14.6 µM [falling, partial curve, poor fit] | –
13 | CCOc1ccc2nc(NS(=O)(=O)c3cccs3)sc2c1 | 16.7 | – | 29.1 µM [rising, single point]
14 | CCOC(=O)c1cc(-c2ccccc2)n(CC(=O)Nc2cccc(OC)c2)c1C | 2.04 | – | 1.64 µM [falling, single point]
15 | COc1cccc(NC(=O)Nc2ccc(CC(=O)O)cc2)c1 | -6.34 | – | 3.66 µM [falling, single point]
16 | O=C(COc1ccc(S(=O)(=O)NC2CCCCC2)cc1)NCc1ccccn1 | – | 6.51 µM [rising, single point] | 6.51 µM [rising, single point]
17 | O=C(CCCOc1ccccc1)Nc1nnc(C2CCCO2)s1 (stereo not given) | 11 | – | 29.1 µM [falling, single point]
18 | CC1CCc2nn(CC(=O)NCCC3=CCCCC3)cc2C1 (stereo not given) | -44.1 | 25.9 µM [falling, partial curve, poor fit] | 7.31 µM [falling, full curve]
19 | CCCCOc1ccccc1C1NC(=O)NC(C)=C1C(=O)OCCOCC (stereo not given) | – | 5.17 µM [falling, single point] | 6.51 µM [falling, single point]
20 | CC(OC(=O)Cc1n[nH]c(=O)c2ccccc12)C(=O)Nc1ccc(S(N)(=O)=O)cc1 (stereo not given) | -40 | 0.326 µM [falling, full curve, poor fit] | –

Row | SMILES | cell number change [%] | AC50 [1] | AC50 [2]
21 | Cc1ccc(/C=N/NC(=O)c2ccc(NC(=O)c3ccc(Cl)cc3)cc2)o1 | 1.71 | – | 0.517 µM [rising, full curve]
22 | O=C(CCNC(=O)c1ccco1)Nc1ccccc1OC(F)F | 0.952 | – | –
23 | OC1(Cc2ccn[nH]2)CCCCC1 | -49.9 | 4.11 µM [falling, full curve] | 0.0058 µM [falling, full curve, poor fit]
24 | CC(=O)Nc1ccccc1C(=O)C(=O)Nc1ccc(C(=O)N2CCOCC2)cc1 | -22 | – | –
25 | COc1cccc2cc(C(C)N(CCCN3CCOCC3)C(=S)Nc3ccc(C)cc3)oc12 (stereo not given) | -21.4 | 0.0058 µM [falling, full curve, poor fit] | –
26 | COc1cc(S(=O)(=O)Nc2ccccn2)ccc1F | -31.2 | 7.31 µM [falling, partial curve, poor fit] | 6.51 µM [falling, single point]
27 | Cc1cc(S(=O)(=O)N2CCOCC2)ccc1OCC(=O)Nc1ccc(F)c(Cl)c1 | -1.9 | – | –
28 | Nc1nc2n(n1)C(c1ccccc1)CC(c1ccc(F)cc1)N2 (stereo not given) | 2.52 | – | 0.259 µM [rising, full curve]
29 | CCOC(=O)N1CCN(C(=O)c2oc3ccc(S(=O)(=O)N4CCOCC4)cc3c2C)CC1 | -7.82 | – | –
30 | CCOC(=O)C(C)N1C(=O)S/C(=C\c2ccc(-c3ccccc3C(=O)O)o2)C1=O (stereo not given) | 24.3 | – | 14.6 µM [falling, partial curve, poor fit]
31 | COc1ccc(C(=O)NNC(=O)C(=O)Nc2ccc(C)cc2)cc1 | 15.7 | – | 0.58 µM [falling, single point]
32 | NC(=O)CSc1ncc(-c2ccccc2)[nH]1 | -7.07 | – | 16.4 µM [rising, single point]
33 | COc1ccc(N=C2NC(=O)C(CO)(CO)S2)cc1 | 22.5 | – | 29.1 µM [rising, single point]
34 | Cc1cccc(C)c1NC(=O)Cn1nc(-c2ccccc2)nc1-c1ccccc1 | 38 | 0.0366 µM [rising, full curve, poor fit] | 0.184 µM [rising, full curve, poor fit]
35 | CCCCN1CC(=O)N2[C@H](c3ccc(OC)cc3)[C@@H]3C(=O)N(CC)C(=O)[C@@H]3[C@]2(Cc2ccccc2)C1=O | 12.9 | – | 3.66 µM [falling, single point]
36 | FC(F)(F)Oc1ccc(NC(=S)NCCCN2CCOCC2)cc1 | -14.2 | 0.0291 µM [falling, full curve, poor fit] | –
37 | CCOc1ccc(-c2nnc(NC(=O)Cc3ccc(OC)cc3)o2)cc1 | 34.6 | 29.1 µM [rising, partial curve] | –
38 | COc1ccccc1CCNC(=O)CNC(=O)c1ccc2ccccc2c1 | 0.901 | – | 11.6 µM [falling, single point]
39 | CC(C)n1c(N2CCN(C(=O)Nc3ccc(Cl)cc3)CC2)nc2ccccc21 | -50 | 20.6 µM [falling, single point] | –
40 | CCn1nccc1C(=O)Nc1ccc(S(=O)(=O)NC23CC4CC(CC(C4)C2)C3)cc1 | -81.9 | 18.4 µM [falling, partial curve] | 18.4 µM [falling, partial curve]

Row | SMILES | cell number change [%] | AC50 [1] | AC50 [2]
41 | Cc1ccc(N(C(=O)C2CCCC2)C2C=CS(=O)(=O)C2)cc1C (stereo not given) | – | 0.326 µM [falling, full curve, poor fit] | –
42 | CCCCc1c(CCC)c(=N)c2ccccc2n1C | -22.8 | – | 18.4 µM [falling, partial curve, poor fit]
43 | COC(=O)[C@H](CC(C)C)NCc1cccc(CN[C@@H](CC(C)C)C(=O)OC)c1 | 18.9 | – | 23.1 µM [falling, single point]
44 | CNC(=O)COC(=O)c1ccccc1C(=O)c1ccc(Cl)c([N+](=O)[O-])c1 | – | 0.82 µM [rising, single point] | –
45 | O=C(CSc1nn(-c2ccc(F)cc2)c(=S)s1)NC(=O)NCc1ccco1 | – | 4.11 µM [rising, single point] | 1.64 µM [rising, partial curve]
46 | CC(C)(C)N1CC(COc2ccccc2)OC1=O (stereo not given) | -38.5 | 3.66 µM [falling, full curve] | 3.66 µM [falling, full curve]
47 | COC(=O)c1cc(OC)c(OC)cc1NC(=O)c1ccco1 | -0.277 | – | 1.84 µM [rising, partial curve]
48 | Cc1ccc(CSCCNC(=O)c2cccc([N+](=O)[O-])c2)cc1 | 12.8 | – | –
49 | Cc1cccc(NC(=S)NNC(=O)COc2ccc(Cl)cc2Cl)c1 | -25.8 | – | 16.4 µM [falling, single point]
50 | C=CCn1c(SCCN2CCCC2)nc2c([nH]c3ccccc32)c1=O | 47.9 | 18.4 µM [rising, partial curve, poor fit] | 20.6 µM [rising, single point]
51 | Cc1ccc(S(=O)(=O)Oc2ccc3c(c2)O/C(=C\c2cccnc2)C3=O)cc1 | 60.2 | 1.84 µM [rising, partial curve] | 0.731 µM [rising, single point]
52 | COc1ccc(-c2cc(=O)oc3cc(OC(C)C(=O)O)ccc23)cc1 (stereo not given) | -7.81 | – | 0.0103 µM [falling, full curve, poor fit]
53 | O=C(Nc1cnn(Cc2ccc(Cl)cc2Cl)c1)c1noc2c1CCCC2 | -25.6 | – | 23.1 µM [falling, single point]
54 | Cc1ccc(C2(C)NC(=O)N(CC(=O)c3ccc(Cl)s3)C2=O)cc1 (stereo not given) | 6.74 | – | 32.6 µM [falling, single point]
55 | CCn1c(SCC(=O)Nc2ccc3c(c2)c2ccccc2n3CC)nnc1-c1cnccn1 | -3.78 | – | 0.13 µM [rising, full curve, poor fit]
56 | Cc1cc(C)c(S(=O)(=O)c2ccccc2C)c(OCCO)n1 | -19.4 | 0.058 µM [rising, full curve, poor fit] | –
57 | CCCNS(=O)(=O)c1ccc2c(c1)n(C)c(=O)n2C | 16.3 | – | 0.231 µM [rising, full curve, poor fit]
58 | COc1ccc(NC(=O)c2ccco2)cc1NC(=O)c1cc2ccccc2o1 | -7.8 | – | 29.1 µM [rising, single point]

Just cell number change [%] and AC50 [1], for five of the compounds above:
Row	SMILES	cell number change [%]	AC50 [1]
44	CNC(=O)COC(=O)c1ccccc1C(=O)c1ccc(Cl)c([N+](=O)[O-])c1	–	0.82 µM [rising, single point]
46	CC(C)(C)N1CC(COc2ccccc2)OC1=O (stereo not given)	-38.5	3.66 µM [falling, full curve]
53	O=C(Nc1cnn(Cc2ccc(Cl)cc2Cl)c1)c1noc2c1CCCC2	-25.6	–
55	CCn1c(SCC(=O)Nc2ccc3c(c2)c2ccccc2n3CC)nnc1-c1cnccn1	-3.78	–
56	Cc1cc(C)c(S(=O)(=O)c2ccccc2C)c(OCCO)n1	-19.4	0.058 µM [rising, full curve, poor fit]
